PubChem BioAssay AID1259425, University of Nebraska Medical Center – 2018

Screen: 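Compare each knockdown with KSR1 silencing using changes in marker transcripts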 (primary screen)
System: HCT116 human colon cancer cells
Reagents: siRNA pool against human genes, 50 nM siRNA
Measured: 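mRNA of six signature genes measured together by branched-DNA assay after 50 nM siRNA pool, blank removed, divided by geometric mean of two housekeeping genes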
Reading the numbers: BNIP3L mRNA: higher = more BNIP3L transcript after knockdown
Here is an unselected part of about 14,000 deposited reagents. Not all columns of the deposit are shown. Reagent sequences are not shown. Not stated in the record: the time to read-out.

GGCT → BNIP3L mRNA, set 1: 0.0944
SPA17 → BNIP3L mRNA, set 1: 0.094
CARS1 → BNIP3L mRNA, set 1: 0.125
DYNLRB1 → BNIP3L mRNA, set 1: 0.0711
CHEK2 → BNIP3L mRNA, set 1: 0.116
SAFB → BNIP3L mRNA, set 1: 0.0842
LRPAP1 → BNIP3L mRNA, set 1: 0.129
BTRC → BNIP3L mRNA, set 1: 0.0738
ALG5 → BNIP3L mRNA, set 1: 0.111
H3C4 → BNIP3L mRNA, set 1: 0.096
VN1R10P → BNIP3L mRNA, set 1: 0.0946
LRRC20 → BNIP3L mRNA, set 1: 0.263
WNT3A → BNIP3L mRNA, set 1: 0.0726
TOX2 → BNIP3L mRNA, set 1: 0.178
SMOC2 → BNIP3L mRNA, set 1: 0.075
USP53 → BNIP3L mRNA, set 1: 0.0614
RPH3AL → BNIP3L mRNA, set 1: 0.582
TEX15 → BNIP3L mRNA, set 1: 0.13
CCDC88C → BNIP3L mRNA, set 1: 0.112
ZCCHC2 → BNIP3L mRNA, set 1: 0.202
ACTL6B → BNIP3L mRNA, set 1: 0.0821
FBXO32 → BNIP3L mRNA, set 1: 0.105
GRAMD1A → BNIP3L mRNA, set 1: 0.0733
TRH → BNIP3L mRNA, set 1: 0.0513
MRPL24 → BNIP3L mRNA, set 1: 0.0719
ASPN → BNIP3L mRNA, set 1: 0.0759
MACROH2A1 → BNIP3L mRNA, set 1: 0.0723
GJB5 → BNIP3L mRNA, set 1: 0.123

Targets above whose gene name begins with S or s (3):
SPA17 → BNIP3L mRNA, set 1: 0.094
SAFB → BNIP3L mRNA, set 1: 0.0842
SMOC2 → BNIP3L mRNA, set 1: 0.075
